Drawing on patent US7276582 (JAPAN SCIENCE AND TECHNOLOGY AGENCY, dated 2007), this text covers binding for 3 molecules.

The chains behind the UniProt entries cited, without tags or fusion partners. Where a name states a change or a piece, a line headed by the entry shows the natural chain unless it says otherwise. Residues count along the entry.
UniProt P11881: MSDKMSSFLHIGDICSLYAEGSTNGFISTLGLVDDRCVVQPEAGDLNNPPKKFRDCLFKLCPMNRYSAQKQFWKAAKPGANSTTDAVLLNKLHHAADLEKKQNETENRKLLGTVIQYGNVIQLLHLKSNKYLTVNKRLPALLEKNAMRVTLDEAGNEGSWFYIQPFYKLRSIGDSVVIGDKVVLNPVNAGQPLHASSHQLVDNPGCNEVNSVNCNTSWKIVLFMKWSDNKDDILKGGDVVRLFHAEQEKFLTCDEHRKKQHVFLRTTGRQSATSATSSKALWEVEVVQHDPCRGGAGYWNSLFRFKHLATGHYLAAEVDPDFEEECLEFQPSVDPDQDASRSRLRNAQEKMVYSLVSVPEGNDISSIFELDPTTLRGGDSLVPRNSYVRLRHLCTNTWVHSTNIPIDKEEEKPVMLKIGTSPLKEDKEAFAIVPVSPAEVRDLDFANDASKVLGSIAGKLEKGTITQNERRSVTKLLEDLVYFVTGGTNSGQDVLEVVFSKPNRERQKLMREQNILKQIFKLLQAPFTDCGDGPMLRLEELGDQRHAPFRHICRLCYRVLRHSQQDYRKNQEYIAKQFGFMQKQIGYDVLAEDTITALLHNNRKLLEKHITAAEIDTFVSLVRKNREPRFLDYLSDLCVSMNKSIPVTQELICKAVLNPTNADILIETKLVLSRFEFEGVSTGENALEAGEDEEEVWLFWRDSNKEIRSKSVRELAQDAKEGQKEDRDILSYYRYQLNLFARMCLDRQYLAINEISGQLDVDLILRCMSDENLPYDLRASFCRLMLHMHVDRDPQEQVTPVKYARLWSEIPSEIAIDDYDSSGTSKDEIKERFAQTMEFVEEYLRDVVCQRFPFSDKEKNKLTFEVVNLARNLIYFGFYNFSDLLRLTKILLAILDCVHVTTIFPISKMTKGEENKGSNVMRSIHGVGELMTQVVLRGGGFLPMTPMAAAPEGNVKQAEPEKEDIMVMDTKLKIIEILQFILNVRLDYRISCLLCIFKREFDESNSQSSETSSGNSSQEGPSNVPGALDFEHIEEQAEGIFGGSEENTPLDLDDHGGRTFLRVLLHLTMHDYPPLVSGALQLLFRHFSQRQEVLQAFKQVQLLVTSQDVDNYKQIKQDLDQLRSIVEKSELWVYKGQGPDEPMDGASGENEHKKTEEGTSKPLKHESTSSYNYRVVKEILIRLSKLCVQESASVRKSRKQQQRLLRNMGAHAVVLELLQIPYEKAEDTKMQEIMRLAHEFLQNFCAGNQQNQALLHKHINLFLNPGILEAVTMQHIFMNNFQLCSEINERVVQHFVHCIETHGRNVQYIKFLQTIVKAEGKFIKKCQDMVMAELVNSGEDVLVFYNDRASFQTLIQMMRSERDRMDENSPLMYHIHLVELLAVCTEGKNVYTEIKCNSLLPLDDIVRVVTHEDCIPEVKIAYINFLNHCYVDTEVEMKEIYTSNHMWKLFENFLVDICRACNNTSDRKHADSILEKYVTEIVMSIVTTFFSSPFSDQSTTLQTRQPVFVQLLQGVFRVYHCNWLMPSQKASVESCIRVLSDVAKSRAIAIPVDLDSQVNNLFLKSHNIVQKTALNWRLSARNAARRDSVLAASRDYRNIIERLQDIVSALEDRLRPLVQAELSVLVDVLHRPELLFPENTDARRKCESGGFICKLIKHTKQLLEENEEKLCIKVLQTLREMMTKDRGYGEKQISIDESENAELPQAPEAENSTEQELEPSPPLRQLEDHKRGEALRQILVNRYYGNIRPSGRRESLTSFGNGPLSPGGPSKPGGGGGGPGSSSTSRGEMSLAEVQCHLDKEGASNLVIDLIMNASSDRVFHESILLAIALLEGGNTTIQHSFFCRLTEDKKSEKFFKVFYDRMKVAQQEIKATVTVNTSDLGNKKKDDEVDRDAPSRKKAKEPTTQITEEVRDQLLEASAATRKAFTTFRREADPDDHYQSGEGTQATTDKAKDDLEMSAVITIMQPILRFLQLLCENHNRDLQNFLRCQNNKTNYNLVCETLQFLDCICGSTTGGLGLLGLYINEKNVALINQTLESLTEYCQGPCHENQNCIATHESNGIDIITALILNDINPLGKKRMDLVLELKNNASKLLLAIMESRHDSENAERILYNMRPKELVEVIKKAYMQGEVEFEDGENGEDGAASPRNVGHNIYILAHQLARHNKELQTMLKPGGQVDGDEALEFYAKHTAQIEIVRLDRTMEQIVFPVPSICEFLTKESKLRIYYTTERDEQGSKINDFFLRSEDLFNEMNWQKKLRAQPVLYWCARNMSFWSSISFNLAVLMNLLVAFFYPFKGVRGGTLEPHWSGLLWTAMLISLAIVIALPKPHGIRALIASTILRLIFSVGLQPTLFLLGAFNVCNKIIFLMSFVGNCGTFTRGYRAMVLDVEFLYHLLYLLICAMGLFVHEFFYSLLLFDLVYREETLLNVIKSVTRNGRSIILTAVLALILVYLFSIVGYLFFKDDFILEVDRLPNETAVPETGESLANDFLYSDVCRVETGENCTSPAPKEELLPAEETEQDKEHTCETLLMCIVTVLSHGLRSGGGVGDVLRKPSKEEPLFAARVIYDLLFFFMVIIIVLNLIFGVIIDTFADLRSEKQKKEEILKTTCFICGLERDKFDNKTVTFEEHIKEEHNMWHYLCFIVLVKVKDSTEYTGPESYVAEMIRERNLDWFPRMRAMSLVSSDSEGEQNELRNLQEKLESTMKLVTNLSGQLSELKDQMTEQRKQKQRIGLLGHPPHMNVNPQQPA
GST-IP3R1 (1-2217) (GST-EL): residues 1-2217 of P11881

No constants are given. Whether binding was seen depends on the method and setting. In cells and extracts the contact can be indirect. Some results given as binding are weak or reduced against the parent protein; the word gives no strength. For part of these data: Sequences can lack the tags named with a protein.

Experiment [1] addresses T1, GST-CARP (mouse) (UniProt P28651).
T1 sequence: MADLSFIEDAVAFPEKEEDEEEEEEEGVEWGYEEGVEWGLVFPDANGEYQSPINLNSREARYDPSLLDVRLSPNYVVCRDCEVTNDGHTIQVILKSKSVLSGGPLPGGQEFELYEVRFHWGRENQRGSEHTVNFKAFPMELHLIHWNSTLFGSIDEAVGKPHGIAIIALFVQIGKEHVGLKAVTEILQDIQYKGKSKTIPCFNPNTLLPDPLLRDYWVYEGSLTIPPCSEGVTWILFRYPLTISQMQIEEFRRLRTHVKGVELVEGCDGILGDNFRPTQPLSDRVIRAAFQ
Description: GST pull-down from detergent extract of mouse cerebellar microsome, immunoblot with anti-IP3R1 antibody KM1112. In general terms: Immunoblotting shows a protein as a band on a membrane.

The target in experiment [2] is GST-IP3R1 (1-2217) (GST-EL) (mouse) (UniProt P11881). The experiment in a line: GST pull-down from mouse cerebellar cytosolic fraction, Western blot with anti-CARP antibody.
For experiment [3] the target is unchanged. The experiment in a line: GST pull-down of purified CARP-His, immunoblot with anti-CARP antibody.

As to “IP3R1 of the detergent extract of mouse cerebellar microsome (from UniProt P11881 1-2749) (receptor)”, the binding entry in experiment [1] is listed as “binds”.

B1: CARP of the cytosolic fraction of mouse cerebellum (other)
chain: MADLSFIEDAVAFPEKEEDEEEEEEEGVEWGYEEGVEWGLVFPDANGEYQSPINLNSREARYDPSLLDVRLSPNYVVCRDCEVTNDGHTIQVILKSKSVLSGGPLPGGQEFELYEVRFHWGRENQRGSEHTVNFKAFPMELHLIHWNSTLFGSIDEAVGKPHGIAIIALFVQIGKEHVGLKAVTEILQDIQYKGKSKTIPCFNPNTLLPDPLLRDYWVYEGSLTIPPCSEGVTWILFRYPLTISQMQIEEFRRLRTHVKGVELVEGCDGILGDNFRPTQPLSDRVIRAAFQ
notes: Endogenous protein in a tissue fraction, detected by Western blotting with anti-CARP polyclonal antibody; also called endogenous CARP
For B1, the binding entry in experiment [2] is on record as “binds”.

B2: CARP-His (protein, not shown: small tags and cut ends)
chain: MADLSFIEDAVAFPEKEEDEEEEEEEGVEWGYEEGVEWGLVFPDANGEYQSPINLNSREARYDPSLLDVRLSPNYVVCRDCEVTNDGHTIQVILKSKSVLSGGPLPGGQEFELYEVRFHWGRENQRGSEHTVNFKAFPMELHLIHWNSTLFGSIDEAVGKPHGIAIIALFVQIGKEHVGLKAVTEILQDIQYKGKSKTIPCFNPNTLLPDPLLRDYWVYEGSLTIPPCSEGVTWILFRYPLTISQMQIEEFRRLRTHVKGVELVEGCDGILGDNFRPTQPLSDRVIRAAFQ
For the molecule B2, in experiment [3], the binding result is listed as “binds”.
